US20160000883A1 (ZEALAND PHARMA A/S, priority 2011, published 2016)

Assay: peptide synthesis
Conditions: whole synthesis

For “H-H-Aib-QGTFTSDYSKYLDS-K(Hexadecanoyl-isoGlu)-AAHDFVEWLLSA-NH2”, which “purity (crude or final not stated)” value is on record?
The value was 94%.
